Record: PubChem BioAssay AID1053208 (Peter MacCallum Cancer Centre, 2014)
Test: 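Genes whose silencing cuts survival of bone tumour cells only with doxorubicin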 (primary screen). Cell system: mouse osteosarcoma cells, early-passage culture from an engineered mouse model of fibroblastic bone tumour. Reagent: siRNA pool against mouse genes, 40 nM. Time to read-out: about 120 h (48 h before drug, then 72 h with drug). Treatment: doxorubicin 100 nM for 72 h, roughly 30-40% inhibitory dose. Measurement: 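Luminescent ATP signal taken as viability with or without 100 nM doxorubicin for 72 h; mean of two wells set against non-targeting siRNA and turned into robust z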. Scale: viability z-score with doxorubicin and doxorubicin viability vs non-targeting: higher = more viable cells under doxorubicin; viability z-score without drug: higher = more viable cells with knock-down alone; z-score of drug to no-drug ratio: higher = less drug sensitisation by knock-down. Call rule: 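Called active if knock-down leaves viability unchanged without drug (z within -2 to 2) but lowers it with doxorubicin (z at or under -2)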.
This is one part, drawn at random, of about 17,000 deposited reagents. In the full data, 788 (4.7%) are marked active. 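Calls rest on z-score classes alone; an extra cut-off of viability at most 70% of control was not applied to them.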 A reagent listed more than once was tested more than once; the source does not tell the runs apart.

The opening 6 records, ahead of the listing:
no.	Target gene	combined z-score class	viability z-score with doxorubicin	viability z-score without drug	z-score of drug to no-drug ratio	doxorubicin viability vs non-targeting	outcome
1	Tle1	low cell count with doxorubicin only	-2.81	-1.18	-2.25	0.69	active
2	Rab4a	high cell count without drug only	1.57	2.36	0.11	1.08	inactive
3	Il31ra	no change with or without drug	-0.45	-1.18	0.45	0.9	inactive
4	Nnt	no change with or without drug	0.9	0.17	0.9	1.02	inactive
5	Racgap1	low cell count without drug only	-1.8	-6.74	4.95	0.78	inactive
6	Rassf9	no change with or without drug	1.57	1.52	0.67	1.08	inactive

The listing, from the first entry:
no.	Target gene	combined z-score class	viability z-score with doxorubicin	viability z-score without drug	z-score of drug to no-drug ratio	doxorubicin viability vs non-targeting	outcome
1	Tle1	low cell count with doxorubicin only	-2.81	-1.18	-2.25	0.69	active
2	Rab4a	high cell count without drug only	1.57	2.36	0.11	1.08	inactive
3	Il31ra	no change with or without drug	-0.45	-1.18	0.45	0.9	inactive
4	Nnt	no change with or without drug	0.9	0.17	0.9	1.02	inactive
5	Racgap1	low cell count without drug only	-1.8	-6.74	4.95	0.78	inactive
6	Rassf9	no change with or without drug	1.57	1.52	0.67	1.08	inactive
7	Thoc3	no change with or without drug	-0.34	0	-0.22	0.91	inactive
8	Or52d3	no change with or without drug	1.91	1.35	1.12	1.11	inactive
9	Casp4	no change with or without drug	1.35	1.69	0.34	1.06	inactive
10	Prpf18	no change with or without drug	0.9	0.67	0.56	1.02	inactive
11	Nepn	high cell count without drug only	-0.79	2.19	-1.91	0.87	inactive
12	H2-Aa	no change with or without drug	1.12	0.51	0.9	1.04	inactive
13	Prxl2c	low cell count with doxorubicin only	-3.6	-1.01	-3.15	0.62	active
14	Phpt1	no change with or without drug	0.22	0.34	0.11	0.96	inactive
15	Coq3	low cell count with doxorubicin only	-2.92	0.17	-3.04	0.68	active
16	Tead2	no change with or without drug	-0.45	-1.18	0.45	0.9	inactive
17	Grap2	no change with or without drug	1.12	1.85	0	1.04	inactive
18	Rpl14	low cell count with and without drug	-6.52	-5.9	-4.27	0.36	inactive
19	Ifit2	no change with or without drug	-0.45	-1.52	0.79	0.9	inactive
20	C1qtnf9	no change with or without drug	-0.9	-0.17	-0.79	0.86	inactive
21	Or12k8	no change with or without drug	-1.91	0.84	-2.36	0.77	inactive
22	Ifitm5	no change with or without drug	-1.12	-0.51	-0.79	0.84	inactive
23	Mrpl42	no change with or without drug	0	-1.01	0.9	0.94	inactive
24	Clcf1	no change with or without drug	-0.67	-0.51	-0.22	0.88	inactive
25	Map2k7	no change with or without drug	0.67	0.17	0.67	1	inactive
26	Tmem94	low cell count without drug only	-1.57	-3.71	1.35	0.8	inactive
27	Snx6	no change with or without drug	0	0.67	-0.34	0.94	inactive
28	Slc26a10	low cell count with doxorubicin only	-2.7	-1.52	-1.91	0.7	active
29	Sfrp2	no change with or without drug	0.22	0.51	0	0.96	inactive
30	Tbc1d20	no change with or without drug	0.9	0.67	0.56	1.02	inactive
31	Nudt18	no change with or without drug	1.46	0.34	1.35	1.07	inactive
32	Ifitm1	no change with or without drug	0.11	1.18	-0.56	0.95	inactive
33	Ubac1	no change with or without drug	-0.11	-0.17	0.11	0.93	inactive
34	Slmap	no change with or without drug	-1.12	-1.18	-0.34	0.84	inactive
35	Umodl1	no change with or without drug	0.45	0.51	0.22	0.98	inactive
36	Pdlim5	no change with or without drug	1.12	-1.01	2.14	1.04	inactive
37	Pdlim5	no change with or without drug	-1.57	1.35	-2.25	0.8	inactive
38	Cc2d1a	no change with or without drug	0	1.01	-0.56	0.94	inactive
39	Igfn1	no change with or without drug	-1.46	-0.51	-1.12	0.81	inactive
40	Ednrb	no change with or without drug	-1.12	-1.01	-0.45	0.84	inactive
41	Fam53a	no change with or without drug	0	1.52	-0.9	0.94	inactive
42	Or5t9	no change with or without drug	-1.01	0.17	-1.01	0.85	inactive
43	Paqr3	no change with or without drug	0.22	0.17	0.22	0.96	inactive
44	Rtn1	high cell count without drug only	0.56	2.7	-1.01	0.99	inactive
45	Ap1g2	no change with or without drug	-0.45	-0.84	0.22	0.9	inactive
46	Pomt2	no change with or without drug	0.45	0.17	0.45	0.98	inactive
47	Gpr3	low cell count without drug only	-1.35	-2.02	0.11	0.82	inactive
48	Mfsd6	no change with or without drug	0.11	-0.84	0.9	0.95	inactive
49	Rbm42	no change with or without drug	-0.22	-0.84	0.45	0.92	inactive
50	Ncoa1	no change with or without drug	-1.12	-0.67	-0.67	0.84	inactive
